Paper PMC11354755

Sequences of proteins named here, by UniProt entry; tags and fusion partners are left off.
UniProt P39081: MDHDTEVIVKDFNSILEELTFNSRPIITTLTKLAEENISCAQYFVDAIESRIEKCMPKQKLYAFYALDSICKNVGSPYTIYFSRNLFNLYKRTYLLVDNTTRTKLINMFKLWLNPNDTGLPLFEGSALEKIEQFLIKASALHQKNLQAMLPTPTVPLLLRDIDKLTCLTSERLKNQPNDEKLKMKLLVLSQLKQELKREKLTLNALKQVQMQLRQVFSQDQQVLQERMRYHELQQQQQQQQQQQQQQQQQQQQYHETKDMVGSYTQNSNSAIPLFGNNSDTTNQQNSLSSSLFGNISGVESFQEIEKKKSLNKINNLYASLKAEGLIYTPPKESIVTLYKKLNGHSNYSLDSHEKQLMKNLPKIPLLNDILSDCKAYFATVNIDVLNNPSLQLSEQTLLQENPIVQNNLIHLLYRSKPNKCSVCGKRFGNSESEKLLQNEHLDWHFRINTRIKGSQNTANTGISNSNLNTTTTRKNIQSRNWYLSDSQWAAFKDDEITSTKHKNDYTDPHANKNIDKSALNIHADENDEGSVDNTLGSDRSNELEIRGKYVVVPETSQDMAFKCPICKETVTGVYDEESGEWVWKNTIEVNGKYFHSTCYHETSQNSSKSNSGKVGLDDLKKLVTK

T1: TFIIB (wild type) (S. cerevisiae) (UniProt P29055)
T1 sequence: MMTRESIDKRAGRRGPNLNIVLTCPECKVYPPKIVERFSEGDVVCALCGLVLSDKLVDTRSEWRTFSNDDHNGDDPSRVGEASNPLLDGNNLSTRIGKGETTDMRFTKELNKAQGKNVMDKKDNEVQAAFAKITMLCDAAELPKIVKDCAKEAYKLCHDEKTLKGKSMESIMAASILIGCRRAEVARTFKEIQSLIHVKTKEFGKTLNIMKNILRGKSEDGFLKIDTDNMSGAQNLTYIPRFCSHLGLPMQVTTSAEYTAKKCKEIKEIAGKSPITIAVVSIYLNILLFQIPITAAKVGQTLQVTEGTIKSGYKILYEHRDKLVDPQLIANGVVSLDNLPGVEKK

B1: Rna14 (protein, UniProt P25298 1-677)
chain: MSSSTTPDLLYPSADKVAEPSDNIHGDELRLRERIKDNPTNILSYFQLIQYLETQESYAKVREVYEQFHNTFPFYSPAWTLQLKGELARDEFETVEKILAQCLSGKLENNDLSLWSTYLDYIRRKNNLITGGQEARAVIVKAFQLVMQKCAIFEPKSSSFWNEYLNFLEQWKPFNKWEEQQRIDMLREFYKKMLCVPFDNLEKMWNRYTQWEQEINSLTARKFIGELSAEYMKARSLYQEWLNVTNGLKRASPINLRTANKKNIPQPGTSDSNIQQLQIWLNWIKWERENKLMLSEDMLSQRISYVYKQGIQYMIFSAEMWYDYSMYISENSDRQNILYTALLANPDSPSLTFKLSECYELDNDSESVSNCFDKCTQTLLSQYKKIASDVNSGEDNNTEYEQELLYKQREKLTFVFCVYMNTMKRISGLSAARTVFGKCRKLKRILTHDVYVENAYLEFQNQNDYKTAFKVLELGLKYFQNDGVYINKYLDFLIFLNKDSQIKTLFETSVEKVQDLTQLKEIYKKMISYESKFGNLNNVYSLEKRFFERFPQENLIEVFTSRYQIQNSNLIKKLELTYMYNEEEDSYFSSGNGDGHHGSYNMSSSDRKRLMEETGNNGNFSNKKFKRDSELPTEVLDLLSVIPKRQYFNTNLLDAQKLVNFLNDQVEIPTVESTKSG
B2: Clp1 (protein, UniProt Q08685 1-445)
chain: MASLPGIDEHTTSEELITGDNEWHKLVIPKGSDWQIDLKAEGKLIVKVNSGIVEIFGTELAVDDEYTFQNWKFPIYAVEETELLWKCPDLTTNTITVKPNHTMKYIYNLHFMLEKIRMSNFEGPRVVIVGGSQTGKTSLSRTLCSYALKFNAYQPLYINLDPQQPIFTVPGCISATPISDILDAQLPTWGQSLTSGATLLHNKQPMVKNFGLERINENKDLYLECISQLGQVVGQRLHLDPQVRRSGCIVDTPSISQLDENLAELHHIIEKLNVNIMLVLCSETDPLWEKVKKTFGPELGNNNIFFIPKLDGVSAVDDVYKRSLQRTSIREYFYGSLDTALSPYAIGVDYEDLTIWKPSNVFDNEVGRVELFPVTITPSNLQHAIIAITFAERRADQATVIKSPILGFALITEVNEKRRKLRVLLPVPGRLPSKAMILTSYRYLE
B3: Rna15 (protein, UniProt P25299 1-296)
chain: MNRQSGVNAGVQNNPPSRVVYLGSIPYDQTEEQILDLCSNVGPVINLKMMFDPQTGRSKGYAFIEFRDLESSASAVRNLNGYQLGSRFLKCGYSSNSDISGVSQQQQQQYNNINGNNNNNGNNNNNSNGPDFQNSGNANFLSQKFPELPSGIDVNINMTTPAMMISSELAKKPKEVQLKFLQKFQEWTRAHPEDAVSLLELCPQLSFVTAELLLTNGICKVDDLIPLASRPQEEASATNNNSVNEVVDPAVLNKQKELLKQVLQLNDSQISILPDDERMAIWDLKQKALRGEFGAF

Target: T1, TFIIB (wild type) (S. cerevisiae)
Experiment: affinity purification with mass spectrometry; TFIIB affinity purified from chromatin and soluble fractions of S. cerevisiae TFIIB^WT and TFIIB^sua7-1 (sua7-1-HA, WA158) cells; quantitative proteomics, TFIIB-normalized spectral abundance factor (BNSAF); four replicates

Molecule | binding
Pcf11 (from UniProt P39081 1-626) | binds
B1 | binds
B2 | binds
B3 | binds

These are yes or no findings as the source states them, for the method shown. Binding seen in cells or lysates may run through a third protein. A yes stands for co-enrichment or nearness to the bait. Other partners may have been found.
